Experimental findings from US20150104448A1 (TRUE NORTH THERAPEUTICS, published 2015) are described below.

One experiment concerns the target MASP1v2. Description: ELISA, target proteins immobilized on micro-titer plates. Background: An ELISA detects its analyte on a solid surface through an enzyme-linked reagent.
The next experiment deals with MASP1v1. The experiment is described as above.

These are yes or no findings as the source states them, for the method shown.

B1: Anti-C1s monoclonal antibody IPN003 (antibody, V domains shown)
VH: EVMLVESGGALVKPGGSLKLSCAASGFTFSNYAMSWVRQIPEKRLEWVATISSGGSHTYYLDSVKGRFTISRDNARDTLYLQMSSLRSEDTALYYCARLFTGYAMDYWGQGTSVTVSS
VL: QIVLTQSPAIMSASLGERVTMTCTASSSVSSSYLHWYQQKPGSSPKLWIYSTSNLASGVPARFSGSGSGTFYSLTISSMEAEDDATYYCHQYYRLPPITFGAGTKLELK
notes: Mouse monoclonal antibody from an NZBW hybridoma; Biotin-labeled in some assays; also called IPN-M34; M34
Take B1: the binding entry with MASP1v2 and in the experiment with MASP1v1 was “no binding (tested: about 2e-7 M)” each time.
